# Results: PubChem BioAssay AID445 (National Center for Advancing Translational Sciences (NCATS), 2006)
# This is one part of the list. These are further read-outs of the screen, such as a control signal, another cell line or another target. No call is given for them. Most of these compounds were active or inconclusive in the main read-out, so they are no random draw. The note in brackets gives the kind of curve behind each potency; many fits are weak.
# Assay: IkB Signaling
# Conditions: ABC-DLBCL IkBa-CBG/CBR dual luciferase ratio (green luciferase fused to IkBa over red control in OCI-Ly3 lymphoma cells), 4 h
# Outline: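 Luminescence ratio of IκBα-fused green versus native red beetle luciferase in OCI-Ly3 cells, 4 h post-doxycycline with compound; red signal alone, scaled from basal (0%) to zero light (-100%), flagged nonspecific or cytotoxic effects.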
# [1] = measured here: control luc red channel unless noted
smiles,measurement,setting,value
COc1ccc(-c2nnc(-c3cccs3)o2)cc1OC,AC50,[1],"20 µM [falling, single point]"
CCC1CN(C(=O)N2CCC(C(=O)NCc3ccc(C)o3)CC2)c2cc(C)ccc2O1 (stereo not drawn),AC50,[1],"0.398 µM [falling, full curve]"
CCOC(=O)c1ccc(NC(=O)Nc2ccc3c(c2)OCCO3)cc1,AC50,[1],"12.6 µM [falling, partial curve]"
CC[C@H](NC(=O)c1c(C)c(-c2ccccc2)nc2ccccc12)c1ccccc1,AC50,[1],"15.8 µM [falling, partial curve]"
COc1ccc(C(=O)NCCc2sc(-c3cccc(F)c3)nc2C)cc1,AC50,[1],"20 µM [falling, partial curve]"
Cc1nc2ccn(Cc3cccnc3)c(=O)c2cc1C(=O)Nc1ccc(OC(F)(F)F)cc1,AC50,[1],"0.398 µM [falling, full curve, poor fit]"
COCC(C)NC(=O)c1cc(-c2ccccc2OC)on1 (stereo not drawn),AC50,[1],"0.0631 µM [falling, full curve]"
CC1CCc2nc(NC(=O)COc3ccc(C(C)(C)C)cc3)sc2C1 (stereo not drawn),AC50,[1],"3.16 µM [falling, partial curve]"
COc1ccc(OC)c(C2CC(=O)c3c([nH]c(C(=O)OCC4CCCCC4)c3C)C2)c1 (stereo not drawn),AC50,[1],"1.58 µM [rising, full curve, poor fit]"
CC(=O)c1cccc(NC(=O)CCS(=O)(=O)c2cc(Br)cc3c2N(C(=O)C2CC2)CC3)c1,AC50,[1],"39.8 µM [falling, single point]"
CC(C)(C)NC(=O)CN(C(=O)CS(=O)CC(=O)Nc1ccc(F)cc1)c1ccc(Cl)cc1 (stereo not drawn),AC50,[1],"15.8 µM [falling, partial curve]"
N#Cc1ccccc1NC(=O)C(=O)NCC(c1cccnc1)N1CCc2ccccc2C1 (stereo not drawn),AC50,[1],"6.31 µM [rising, single point]"
COc1ccc(OC)c(CCNC(=O)C(C)n2nc(C)c3c(C)n(-c4ccc(C)cc4)nc3c2=O)c1 (stereo not drawn),AC50,[1],"6.31 µM [falling, partial curve]"
CCOc1ccccc1NC(=O)C1CCCN(S(=O)(=O)c2ccc3c(c2)CCCN3C(C)=O)C1 (stereo not drawn),AC50,[1],"39.8 µM [falling, single point]"
CCc1ccc(S(=O)(=O)c2nnn3c2nc(Nc2cccc(C)c2C)c2sccc23)cc1,AC50,[1],"15.8 µM [falling, partial curve]"
COc1cc(-c2nnc(SCC(=O)N3CCCc4ccccc43)o2)cc(OC)c1OC,AC50,[1],"10 µM [falling, partial curve, poor fit]"
CCN(C(=O)Cn1nc(Cc2cccnc2)c2ccccc2c1=O)c1cc(C)ccc1C,AC50,[1],"12.6 µM [falling, single point]"
CSc1ccccc1NC(=O)CCS(=O)(=O)c1nc(-c2cccs2)cc(C(F)(F)F)n1,AC50,[1],"3.98 µM [falling, full curve]"
CCn1c(C(=O)Nc2cc(C)cc(C)c2)cc2sc(Cl)cc21,AC50,[1],"0.01 µM [falling, full curve, poor fit]"
CCN(CC)CCOC(=O)c1ccc(NC(=O)CCn2c(=O)oc3ccccc32)cc1,AC50,[1],"5.01 µM [rising, full curve, poor fit]"
CCOC(=O)c1cccc(NC(=O)C2CCN(c3nnc(C)c4c(C)n(-c5ccccc5)nc34)CC2)c1,AC50,[1],"20 µM [falling, partial curve]"
COC(=O)c1sc(NC(=O)COc2ccccc2)nc1C,AC50,[1],"2 µM [falling, partial curve]"
COc1ccc(NCc2cccn2-c2nnc(N3CCOCC3)s2)c(OC)c1,AC50,[1],"10 µM [falling, partial curve, poor fit]"
O=C(NNc1ncnc2c1cnn2-c1ccccc1)c1ccccc1,AC50,[1],"0.0316 µM [falling, full curve, poor fit]"
COc1ccc(C(=O)Nc2ccc3nc(N4CCCCC4)cc(C)c3c2)c(OC)c1,AC50,[1],"12.6 µM [falling, partial curve]"
Cc1cn2c(=O)cc(COc3cccc(NC(=O)c4cccc(F)c4)c3)nc2s1,AC50,[1],"2 µM [falling, full curve]"
CCCc1oc2ccc(NS(=O)(=O)c3ccc(OC)cc3)cc2c1C(=O)OCC,AC50,[1],"10 µM [falling, partial curve]"
CCOC(=O)c1c(NC(C)=O)c2c3c(sc2n1Cc1cccc(Cl)c1)CCCC3,AC50,[1],"3.98 µM [falling, partial curve]"
CCCN(C(=O)CCn1cnc2onc(-c3ccc(F)cc3)c2c1=O)c1ccccc1C,AC50,[1],"39.8 µM [falling, single point]"
Cc1ccc(Cl)cc1N1CCN(C(=O)Cn2nc(C)n3c(cc4sccc43)c2=O)CC1,AC50,[1],"20 µM [falling, partial curve]"
Cc1cc(C)cc(C(=O)Nc2c3c(nn2-c2ccccc2C)CS(=O)(=O)C3)c1,AC50,[1],"39.8 µM [falling, single point]"
CC1(CCc2ccccc2)NC(=O)N(Cc2nnc(-c3ccccc3Br)o2)C1=O (stereo not drawn),AC50,[1],"39.8 µM [falling, single point]"
O=C(Cn1nc2c(cc1=O)CCCC2)NCc1ccccc1Cl,AC50,[1],"1 µM [rising, full curve]"
CCC(=O)N1c2nc(C(C)C)nn2C2(CCCCC2)[C@@H]2CCCC[C@@H]21,AC50,[1],"25.1 µM [falling, single point]"
COc1ccc(Cl)cc1NC(=O)C(C)n1nnc2sc3c(c2c1=O)CCCC3 (stereo not drawn),AC50,[1],"12.6 µM [falling, partial curve]"
COc1ccccc1C(=O)Nc1cc(-c2cccc(Br)c2)nn1-c1ccccc1,AC50,[1],"20 µM [falling, partial curve, poor fit]"
COc1ccccc1N1CCN(C(c2cc3ccc(C)cc3[nH]c2=O)c2nnnn2C2CCCC2)CC1 (stereo not drawn),AC50,[1],"15.8 µM [falling, partial curve]"
CCOc1ccc(NC(=O)Cn2nnc(C(=O)OC)c2C(=O)OC)cc1,AC50,[1],"0.2 µM [rising, partial curve, poor fit]"
Cc1ccc(C(=O)NCC(=O)OCc2cc(=O)n3nc(C4CCCCC4)sc3n2)cc1,AC50,[1],"3.98 µM [rising, single point]"
COc1ccc(C(=O)NC2(C(F)(F)F)C(=O)NC(C)=C2C#N)cc1 (stereo not drawn),AC50,[1],"7.94 µM [rising, single point]"
CCCCSCc1nc2nc(Cl)c(Cl)nc2[nH]1,AC50,[1],"2 µM [falling, partial curve]"
COc1cc(Br)cc(CN2CCN(C/C=C/c3ccccc3)CC2)c1O,AC50,[1],"12.6 µM [falling, partial curve]"
CCC(Oc1ccc(F)cc1)C(=O)Nc1cc(-c2ccc(C)cc2)no1 (stereo not drawn),AC50,[1],"25.1 µM [falling, partial curve]"
COc1cccc(CNC(=O)Nc2cc(C(=O)NCc3cccc(F)c3)ccc2N2CCCC2)c1,AC50,[1],"12.6 µM [falling, partial curve]"
Cc1ccc(N[C@H](c2ccccc2)c2ccc3cccnc3c2O)cc1,AC50,[1],"3.98 µM [rising, partial curve] [measured here: IkB-luc green channel]"
Cc1cccc2cc(CN(Cc3ccco3)C(=O)NC3CCCCC3)c(=O)[nH]c12,AC50,[1],"31.6 µM [falling, single point]"
CCN(CC)c1ccc(NC(=O)c2cc(CN3CCCC3)on2)c(C)c1,AC50,[1],"39.8 µM [falling, partial curve]"
CCOc1cc(CNC(=O)c2ccc(NC(=O)c3nsc4ccccc34)cc2)ccc1OC,AC50,[1],"0.1 µM [falling, full curve]"
Cn1c(=O)c2ccccc2n2c(CCC(=O)N3CCN(c4cccc(Cl)c4)CC3)nnc12,AC50,[1],"25.1 µM [falling, single point]"
CCOc1ccc(NC(=O)CC2C(=O)N(c3cccc(OC)c3)C(=O)N2C2CCCCC2)cc1 (stereo not drawn),AC50,[1],"25.1 µM [falling, partial curve]"
COC(=O)c1c(-c2cccs2)csc1NC(=O)c1cc(OC)cc(OC)c1,AC50,[1],"12.6 µM [falling, partial curve]"
Clc1cccc(-n2ncc3c(NCCCc4ccccc4)ncnc32)c1,AC50,[1],"20 µM [falling, partial curve]"
Cc1ccc(C(=O)Nc2nc3ccccc3c(=O)s2)cc1,AC50,measured here: IkB-luc green channel,"2.51 µM [rising, full curve]"
same,AC50,measured here: control luc red channel,"1.26 µM [falling, full curve]"
Cc1cc(S(=O)(=O)Nc2cccc(-c3ccc(N4CCOCC4)nn3)c2)c(C)cc1Cl,AC50,[1],"39.8 µM [falling, partial curve]"
Cc1ccc(CCNC(=O)c2sc3ncccc3c2-n2cccc2)cc1,AC50,[1],"20 µM [falling, partial curve]"
COc1cccc(NC(=O)CSc2nc(O)c(C/C=C/c3ccccc3)c(=O)[nH]2)c1,AC50,[1],"15.8 µM [falling, partial curve]"
c1ccc(-c2ccc(N3CC[C@@]4(CCCNC4)C3)cc2)cc1,AC50,[1],"3.98 µM [falling, partial curve]"
CCc1cccc(C)c1Nc1c(-c2ccc(N(C)C)cc2)nc2ncccn12,AC50,[1],"31.6 µM [falling, single point]"
CC1CCC(NC(=O)C2(C)Cc3ccccc3C(=O)N2Cc2ccccc2Cl)CC1 (stereo not drawn),AC50,[1],"39.8 µM [falling, single point]"
COc1ccc2c(c1)-c1nc(NC(=O)c3cc(OC)c(OC)c(OC)c3)sc1CC2,AC50,[1],"0.398 µM [falling, full curve]"
O=c1[nH]c(C2CCCN(S(=O)(=O)c3ccccc3)C2)nc2c1nnn2Cc1ccc(OC(F)(F)F)cc1 (stereo not drawn),AC50,[1],"0.316 µM [falling, full curve]"
O=C(C1CCC(Cn2c(=O)c3sccc3n(Cc3ccc(F)cc3)c2=O)CC1)N1CCOCC1 (stereo not drawn),AC50,[1],"7.94 µM [rising, single point]"

# Rewritten bar-delimited: entries from further up.
smiles | measurement | setting | value
COC(=O)c1c(-c2cccs2)csc1NC(=O)c1cc(OC)cc(OC)c1 | AC50 | [1] | 12.6 µM [falling, partial curve]
Clc1cccc(-n2ncc3c(NCCCc4ccccc4)ncnc32)c1 | AC50 | [1] | 20 µM [falling, partial curve]

# Shown with bars between the fields: part of the list above.
smiles | measurement | setting | value
CCn1c(C(=O)Nc2cc(C)cc(C)c2)cc2sc(Cl)cc21 | AC50 | [1] | 0.01 µM [falling, full curve, poor fit]
CCN(CC)CCOC(=O)c1ccc(NC(=O)CCn2c(=O)oc3ccccc32)cc1 | AC50 | [1] | 5.01 µM [rising, full curve, poor fit]
